This passage reports binding results from paper PMC7403338.

By UniProt entry, the sequences of proteins in these tests, tags left out. Where a name states a change or a piece, a line headed by the entry shows the natural chain unless it says otherwise.
UniProt A4IB95: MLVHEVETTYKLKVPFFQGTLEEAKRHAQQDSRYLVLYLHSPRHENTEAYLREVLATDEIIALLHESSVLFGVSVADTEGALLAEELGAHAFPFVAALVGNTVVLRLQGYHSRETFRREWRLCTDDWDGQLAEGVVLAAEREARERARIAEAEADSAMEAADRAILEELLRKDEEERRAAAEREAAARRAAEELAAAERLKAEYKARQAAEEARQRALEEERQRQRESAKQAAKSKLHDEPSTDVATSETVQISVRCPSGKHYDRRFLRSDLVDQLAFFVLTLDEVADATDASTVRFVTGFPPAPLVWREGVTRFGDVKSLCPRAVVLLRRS
UniProt A4HU22: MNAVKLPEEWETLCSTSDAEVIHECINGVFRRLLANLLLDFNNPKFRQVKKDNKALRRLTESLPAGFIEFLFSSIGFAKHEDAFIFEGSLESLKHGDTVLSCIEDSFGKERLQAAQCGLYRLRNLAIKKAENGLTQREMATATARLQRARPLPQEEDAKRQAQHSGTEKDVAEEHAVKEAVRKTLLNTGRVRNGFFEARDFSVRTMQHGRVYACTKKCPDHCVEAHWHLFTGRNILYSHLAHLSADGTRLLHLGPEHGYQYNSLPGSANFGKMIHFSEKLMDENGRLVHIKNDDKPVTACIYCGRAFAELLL
UniProt A4ICA6: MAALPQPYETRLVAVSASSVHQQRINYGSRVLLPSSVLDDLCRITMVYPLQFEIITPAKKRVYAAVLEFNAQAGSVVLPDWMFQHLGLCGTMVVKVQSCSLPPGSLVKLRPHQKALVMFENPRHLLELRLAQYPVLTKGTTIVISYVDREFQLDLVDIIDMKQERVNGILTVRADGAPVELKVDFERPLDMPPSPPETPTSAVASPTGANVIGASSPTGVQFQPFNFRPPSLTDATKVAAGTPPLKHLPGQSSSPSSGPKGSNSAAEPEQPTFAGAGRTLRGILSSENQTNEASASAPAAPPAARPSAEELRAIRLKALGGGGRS
UniProt Q9N9V5: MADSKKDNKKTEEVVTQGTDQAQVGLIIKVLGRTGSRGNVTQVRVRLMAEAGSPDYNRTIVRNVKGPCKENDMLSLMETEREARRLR
UniProt A4I4A3: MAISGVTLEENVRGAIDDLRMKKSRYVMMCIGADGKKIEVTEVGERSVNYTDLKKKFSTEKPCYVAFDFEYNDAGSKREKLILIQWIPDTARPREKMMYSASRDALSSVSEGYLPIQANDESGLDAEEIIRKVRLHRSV
UniProt A4I1S9: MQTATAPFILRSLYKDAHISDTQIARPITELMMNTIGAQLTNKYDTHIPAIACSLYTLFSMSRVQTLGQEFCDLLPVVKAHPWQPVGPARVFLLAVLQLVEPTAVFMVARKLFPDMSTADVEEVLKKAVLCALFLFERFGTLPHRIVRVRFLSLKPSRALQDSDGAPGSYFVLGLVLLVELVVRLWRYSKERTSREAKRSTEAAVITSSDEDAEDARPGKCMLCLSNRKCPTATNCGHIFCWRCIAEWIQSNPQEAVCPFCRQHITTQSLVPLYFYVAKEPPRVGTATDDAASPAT
UniProt A4I9W4: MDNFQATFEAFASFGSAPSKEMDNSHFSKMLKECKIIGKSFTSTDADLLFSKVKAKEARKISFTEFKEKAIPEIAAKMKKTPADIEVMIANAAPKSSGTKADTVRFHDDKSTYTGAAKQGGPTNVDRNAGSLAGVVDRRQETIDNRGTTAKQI
UniProt A4HSN6: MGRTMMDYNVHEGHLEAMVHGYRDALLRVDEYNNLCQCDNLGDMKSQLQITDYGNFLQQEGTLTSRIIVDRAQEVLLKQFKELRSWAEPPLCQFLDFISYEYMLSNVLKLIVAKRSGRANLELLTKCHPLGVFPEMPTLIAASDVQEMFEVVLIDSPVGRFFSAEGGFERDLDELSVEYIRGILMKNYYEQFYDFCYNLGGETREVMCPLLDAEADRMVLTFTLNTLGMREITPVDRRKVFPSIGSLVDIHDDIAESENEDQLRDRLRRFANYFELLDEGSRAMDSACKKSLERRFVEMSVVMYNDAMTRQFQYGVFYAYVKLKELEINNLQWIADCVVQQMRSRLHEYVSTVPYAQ
UniProt A4IAK7: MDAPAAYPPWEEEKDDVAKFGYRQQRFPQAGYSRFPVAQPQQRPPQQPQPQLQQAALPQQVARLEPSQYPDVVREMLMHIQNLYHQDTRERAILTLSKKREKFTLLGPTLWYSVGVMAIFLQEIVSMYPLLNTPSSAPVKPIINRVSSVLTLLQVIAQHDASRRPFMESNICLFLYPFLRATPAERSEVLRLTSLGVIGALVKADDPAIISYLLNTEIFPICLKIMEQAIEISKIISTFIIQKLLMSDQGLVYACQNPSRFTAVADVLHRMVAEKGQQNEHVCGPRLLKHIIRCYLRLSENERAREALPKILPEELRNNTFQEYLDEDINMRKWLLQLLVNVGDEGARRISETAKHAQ
UniProt A4IC22: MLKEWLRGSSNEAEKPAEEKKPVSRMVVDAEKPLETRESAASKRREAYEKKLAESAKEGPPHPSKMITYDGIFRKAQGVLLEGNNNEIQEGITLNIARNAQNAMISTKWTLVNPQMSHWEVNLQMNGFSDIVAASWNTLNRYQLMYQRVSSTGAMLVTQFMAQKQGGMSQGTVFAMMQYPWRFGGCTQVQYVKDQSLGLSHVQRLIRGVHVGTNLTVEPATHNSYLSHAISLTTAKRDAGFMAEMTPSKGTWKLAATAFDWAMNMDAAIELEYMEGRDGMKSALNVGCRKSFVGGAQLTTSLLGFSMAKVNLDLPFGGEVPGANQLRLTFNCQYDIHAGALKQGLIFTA
UniProt A4HYE3: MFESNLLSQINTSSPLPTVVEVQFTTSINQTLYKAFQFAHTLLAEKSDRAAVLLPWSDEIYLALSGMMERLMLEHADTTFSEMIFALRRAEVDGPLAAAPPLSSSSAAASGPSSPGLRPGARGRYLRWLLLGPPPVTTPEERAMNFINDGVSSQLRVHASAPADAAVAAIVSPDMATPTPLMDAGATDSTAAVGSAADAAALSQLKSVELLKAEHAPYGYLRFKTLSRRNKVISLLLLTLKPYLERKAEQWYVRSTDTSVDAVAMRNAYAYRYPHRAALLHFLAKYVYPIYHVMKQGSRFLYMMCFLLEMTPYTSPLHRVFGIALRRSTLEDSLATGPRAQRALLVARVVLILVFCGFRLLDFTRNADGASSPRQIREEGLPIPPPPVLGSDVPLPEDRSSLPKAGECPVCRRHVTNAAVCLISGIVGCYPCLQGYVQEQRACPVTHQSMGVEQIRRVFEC
UniProt A4IBQ8: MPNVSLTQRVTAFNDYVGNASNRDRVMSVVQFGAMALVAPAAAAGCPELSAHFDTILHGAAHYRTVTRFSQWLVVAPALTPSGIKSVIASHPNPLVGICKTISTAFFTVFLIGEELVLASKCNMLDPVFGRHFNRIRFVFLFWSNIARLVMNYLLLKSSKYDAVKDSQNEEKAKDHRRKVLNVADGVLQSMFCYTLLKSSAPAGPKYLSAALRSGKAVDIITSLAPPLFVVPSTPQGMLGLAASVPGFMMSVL
UniProt A4HTA0: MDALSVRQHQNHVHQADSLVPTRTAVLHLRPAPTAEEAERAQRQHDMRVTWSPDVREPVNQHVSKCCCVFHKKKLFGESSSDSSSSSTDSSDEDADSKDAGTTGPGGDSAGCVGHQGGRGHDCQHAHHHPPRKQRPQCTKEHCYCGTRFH
UniProt A4HSP2: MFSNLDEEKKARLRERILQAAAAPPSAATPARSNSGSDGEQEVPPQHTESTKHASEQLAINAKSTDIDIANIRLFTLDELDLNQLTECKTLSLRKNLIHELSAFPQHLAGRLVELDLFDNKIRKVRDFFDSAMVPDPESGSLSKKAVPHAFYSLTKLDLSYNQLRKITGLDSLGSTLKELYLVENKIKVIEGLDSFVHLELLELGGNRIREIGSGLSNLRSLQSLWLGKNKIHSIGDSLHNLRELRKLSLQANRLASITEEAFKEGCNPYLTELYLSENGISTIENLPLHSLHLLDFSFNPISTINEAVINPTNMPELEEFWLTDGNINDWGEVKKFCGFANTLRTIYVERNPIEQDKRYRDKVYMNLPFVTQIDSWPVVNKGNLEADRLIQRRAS
UniProt A4I7K1: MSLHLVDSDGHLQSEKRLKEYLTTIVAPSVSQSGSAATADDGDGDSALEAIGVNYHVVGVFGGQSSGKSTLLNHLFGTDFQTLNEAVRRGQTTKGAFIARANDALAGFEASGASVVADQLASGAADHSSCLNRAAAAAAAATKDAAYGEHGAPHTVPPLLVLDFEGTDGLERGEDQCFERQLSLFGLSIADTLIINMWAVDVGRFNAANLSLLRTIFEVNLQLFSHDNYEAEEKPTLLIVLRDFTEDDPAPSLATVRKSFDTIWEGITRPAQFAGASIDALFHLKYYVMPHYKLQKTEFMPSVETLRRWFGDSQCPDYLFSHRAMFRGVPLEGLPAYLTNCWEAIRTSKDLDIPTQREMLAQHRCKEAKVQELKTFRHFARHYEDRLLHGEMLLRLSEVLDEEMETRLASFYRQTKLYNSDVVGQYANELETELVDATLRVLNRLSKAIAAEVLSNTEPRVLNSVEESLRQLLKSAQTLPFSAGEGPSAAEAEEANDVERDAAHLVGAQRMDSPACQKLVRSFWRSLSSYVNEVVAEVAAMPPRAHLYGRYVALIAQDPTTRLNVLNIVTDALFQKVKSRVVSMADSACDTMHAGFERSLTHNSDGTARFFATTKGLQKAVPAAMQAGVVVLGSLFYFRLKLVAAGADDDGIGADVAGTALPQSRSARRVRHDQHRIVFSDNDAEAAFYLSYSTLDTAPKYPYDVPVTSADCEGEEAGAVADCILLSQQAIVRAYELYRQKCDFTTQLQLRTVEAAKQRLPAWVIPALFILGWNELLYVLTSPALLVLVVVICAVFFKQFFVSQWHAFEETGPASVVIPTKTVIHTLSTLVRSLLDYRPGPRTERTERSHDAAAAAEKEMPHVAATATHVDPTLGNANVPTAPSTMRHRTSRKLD
UniProt A4HXS0: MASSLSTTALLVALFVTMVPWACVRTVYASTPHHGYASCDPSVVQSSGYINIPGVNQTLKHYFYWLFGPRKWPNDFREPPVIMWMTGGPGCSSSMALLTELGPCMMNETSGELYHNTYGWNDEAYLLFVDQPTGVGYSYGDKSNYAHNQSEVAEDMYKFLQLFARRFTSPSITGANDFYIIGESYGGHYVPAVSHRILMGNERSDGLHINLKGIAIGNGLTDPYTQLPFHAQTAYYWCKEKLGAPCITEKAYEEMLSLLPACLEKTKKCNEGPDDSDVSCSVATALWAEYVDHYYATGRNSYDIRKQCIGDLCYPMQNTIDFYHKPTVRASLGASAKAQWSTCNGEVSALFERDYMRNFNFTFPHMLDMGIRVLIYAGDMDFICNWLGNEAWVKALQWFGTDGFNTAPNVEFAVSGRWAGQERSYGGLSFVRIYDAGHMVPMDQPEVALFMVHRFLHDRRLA
UniProt A4HSM6: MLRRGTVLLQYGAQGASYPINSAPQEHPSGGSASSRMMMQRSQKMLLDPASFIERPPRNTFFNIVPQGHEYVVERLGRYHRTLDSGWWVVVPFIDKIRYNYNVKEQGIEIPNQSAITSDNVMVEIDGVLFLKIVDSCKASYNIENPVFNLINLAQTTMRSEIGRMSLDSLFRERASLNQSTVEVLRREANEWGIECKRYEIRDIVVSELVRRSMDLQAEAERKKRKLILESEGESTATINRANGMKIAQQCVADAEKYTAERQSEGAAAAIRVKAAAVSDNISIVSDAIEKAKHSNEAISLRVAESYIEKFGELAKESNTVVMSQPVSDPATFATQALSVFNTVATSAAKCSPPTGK
UniProt A4HXA8: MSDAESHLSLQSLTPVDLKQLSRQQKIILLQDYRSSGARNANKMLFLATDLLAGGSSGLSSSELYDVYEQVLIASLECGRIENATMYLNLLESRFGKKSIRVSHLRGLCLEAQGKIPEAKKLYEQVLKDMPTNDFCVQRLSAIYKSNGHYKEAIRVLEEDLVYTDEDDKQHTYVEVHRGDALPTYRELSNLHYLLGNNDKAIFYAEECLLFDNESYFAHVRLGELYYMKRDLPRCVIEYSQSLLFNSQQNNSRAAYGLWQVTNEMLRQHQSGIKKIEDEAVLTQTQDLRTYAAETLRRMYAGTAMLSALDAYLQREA
UniProt E9AH65: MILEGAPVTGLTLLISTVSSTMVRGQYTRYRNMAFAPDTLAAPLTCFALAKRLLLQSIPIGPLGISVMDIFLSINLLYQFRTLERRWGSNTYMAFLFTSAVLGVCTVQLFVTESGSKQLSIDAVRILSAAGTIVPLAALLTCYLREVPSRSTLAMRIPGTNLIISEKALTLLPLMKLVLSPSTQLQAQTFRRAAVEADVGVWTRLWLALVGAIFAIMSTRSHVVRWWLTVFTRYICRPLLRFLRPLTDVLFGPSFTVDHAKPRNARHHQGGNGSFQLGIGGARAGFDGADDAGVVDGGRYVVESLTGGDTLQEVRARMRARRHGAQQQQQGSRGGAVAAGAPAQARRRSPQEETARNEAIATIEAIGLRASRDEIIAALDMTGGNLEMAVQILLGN

Results are given in words; binding and its absence hold for the method and conditions named. In cells and extracts the contact can be indirect. Here binding means that the protein was enriched with, or labelled near, the bait; the list need not be complete. For some assays here: No binding means not detected with the bait.

What all share (experiment): affinity purification with mass spectrometry; lysates of L. infantum promastigotes expressing C- or N-terminally HA-tagged Lip47, LiUFD1, LiFAF2 or LiPUB1 on anti-HA magnetic beads; LC-MS/MS; two independent experiments for each cofactor, filtered against five unrelated HA-tagged proteins
For assay [1], the target named is HA-tagged LiFAF2 (Leishmania infantum) (UniProt A4IB95).
Assay [2] concerns the target HA-tagged LiPUB1 (Leishmania infantum) (UniProt A4HU22).
For assay [3], the target named is HA-tagged Lip47 (Leishmania infantum) (UniProt A4HZR0).
Assay [4] concerns the target HA-tagged LiUFD1 (Leishmania infantum) (UniProt A4ICA6).

Regarding “40S ribosomal protein S33, putative (LinJ.26.1610) (from UniProt Q9N9V5)”, the binding result in assay [1] and in assay [2] was “binds” in each case.

Turning to “ADF (actin depolymerization factor)/Cofilin (LinJ.29.0520) (from UniProt A4I4A3)”, the binding result in assay [1] and in assay [3] was “binds” each time.

On to “LiFAF2, endogenous (from UniProt A4IB95)”, for which the binding entry in assay [4] is listed as “binds”.

“LiPUB1, endogenous (from UniProt A4HU22)”: in assay [3], the binding result is “binds”.

In the case of “LiUFD1, endogenous (from UniProt A4ICA6)”, the binding entry is “binds” in assay [2] and “no binding” in assay [3].

Turning to Lip47, endogenous (from UniProt A4HZR0), in assay [4], the binding result was “no binding”.

Turning to “PEX10, PEX2 / PEX12 amino terminal region/ RING/U-box containing protein (LinJ.25.2400) (from UniProt A4I1S9)”, the binding result in assay [1] is reported as “binds”.

Take “TPPP/p25-alpha, putative (Tubulin Polymerization-Promoting Protein) (LinJ.34.1620) (from UniProt A4I9W4)”: the binding entry in assay [1], in assay [2] and in assay [3] was “binds” in each case.

Take “V-type proton ATPase subunit D, putative (LinJ.05.1140) (from UniProt A4HSN6)”: the binding entry in assay [1], in assay [4] and in assay [3] was “binds” throughout.

Regarding “cell differentiation protein-like protein (Rcd1 homolog) (LinJ.34.4180) (from UniProt A4IAK7)”, the binding entry in assay [1] is reported as “binds”.

On to “mitochondrial import receptor subunit ATOM40, putative (LinJ.35.4920) (from UniProt A4IC22)”, for which the binding result in assay [1], in assay [2] and in assay [4] was “binds” each time.

In the case of “peroxin 12 (PEX12), putative (RING/U-box) (LinJ.19.1240) (from UniProt A4HYE3)”, in assay [4], the binding entry was “binds”.

For the molecule “peroxisomal biogenesis factor 11 (PEX11), putative (LinJ.35.3740) (from UniProt A4IBQ8)”, in assay [1], the binding entry is listed as “binds”.

For “phenylalanine-4-hydroxylase (signal peptide) (LinJ.28.1390) (from UniProt A4I3K7) (enzyme)”, in assay [4], the binding entry is listed as “binds”.

With “protein phosphatase inhibitor (Ypi1, PP1 Protein phosphatase inhibitor) (LinJ.07.0840) (from UniProt A4HTA0)”, the binding entry in assay [3] was “binds”.

For the molecule “protein phosphatase type 1 (PP1) regulator-like protein (SDS22) (LinJ.05.1200) (from UniProt A4HSP2)”, the binding result in assay [3] is reported as “binds”.

For the molecule “root hair defective 3 GTP-binding protein (RHD3), putative (LinJ.32.0380) (from UniProt A4I7K1)”, the binding result in assay [1], in assay [2] and in assay [3] was “binds” throughout.

For “serine carboxypeptidase (CBP1)-putative (mitochondrial, 1 TM) (LinJ.18.0450) (from UniProt A4HXS0) (enzyme)”, the binding entry in assay [4] is reported as “binds”.

Regarding “stomatin-like protein 2 (SLP-2, mitochondrial) (LinJ.05.1040) (from UniProt A4HSM6)”, the binding result in assay [1] and in assay [4] was “binds” throughout.

With “tetratricopeptide repeat, putative (ER membrane protein complex subunit 2) (LinJ.17.0230) (from UniProt A4HXA8)”, the binding entry in assay [1] is listed as “binds”.

With “ubiquitin associated UBA/TS-N domain protein (LinJ.24.1650) (from UniProt E9AH65)”, the binding result in assay [1] and in assay [4] was “binds” throughout.

B1: hypothetical protein-conserved (alkaline phosphatase like superfamily, 1 TM) LinJ.12.0550 (protein, UniProt E9AGE7 1-518)
chain: MFGESYVESGAPNAARGGGHYTTTRIESPALRAAGASSSGANGQQQHLRSVKEIIKTLDEEHEISGPKGGCCSRIFVPFLTLAMIIVIFVAIVYTNGTGSDVEASPRVAMIVLEGFSGTVFHALMQSGVHMPNIAHMLSSQKGVWAECATSSQSSCARAVVVENDTSGEVYVSAAAAMTSLFSGVSPREHQVYNGSLESMSMYANTSKMNPSIAKRVKDAGMKVSVVGTSHAINSLSIAFGSCSQPGVLDMECAASREELLRASIDEYSSSVQLDCLASSSCNMDTRKMNSPTDPKQCSSGQAEAQFTRHLNSIFGGLAYSTQTQEAAVQNTAADNLDDSLFVFHFDSLAVRAASTYLPGFQYNVSSKEYVAQVYLLDALVGQVISYVRDRARSQKENWLILGVSDHGGNDKPHAIPNPVSTSENTIAFFMATYTDNLKRFVTLAPLQRPVTQLDVLPTVLTWLNVAPFDAETSAVIAGKNTTAASPAVEARVMERRHFEGLVQGICSSGTSLKDCAV
Turning to B1, the binding entry in assay [4] is “binds”.
